Results as given in PubChem BioAssay AID192 (DTP/NCI, 2004).
The list is a part of this screen's results and no random one: it is rich in T/C values a quarter to a half above the control, in often repeated tests (any T/C) and in doses without a T/C. Other doses and runs of a compound stand elsewhere. T/C gives the treated animals as a percentage of the vehicle group. Some entries give survivors of the animals treated and no T/C: the source files T/C as zero there, which appears to mark a toxic dose or a test without result, not a measured value. Some survivor counts are full or nearly so, which does not show that the dose was tolerated: survival well below the control is almost never listed, so the zero probably covers shortened survival too. Counts of survivors are from the toxicity check (mostly the fifth day) where no day follows; animals may have died later. Schedules are NCI's codes, taken here to give the interval after Q, in days (D) or hours (H), and the number of doses after X. Some entries were tested several times; their values stand side by side, smallest first. Some structures stand for samples that the source files as different forms (salt, stereo form or complex); doses refer to the form tested. Additions like (4×) stand for listed records that agree. For survival time, this PubChem deposit counts one and a half times the control or more as active, and values a quarter to a half above the control carry no call in these data; other NCI protocols may use other cut-offs. Some T/C values carry the count of animals alive at the toxicity check (mostly the fifth day); without a count, all were alive then. Square brackets hold non-standard residues; d marks the D form. Peptide text beside a SMILES is read from it. * marks the point of attachment. Cbz = O=C(OCc1ccccc1)*; Nva = CCC[CH](N)C(=O)O

Test system: BDF1 mice, B16 melanoma ip, median survival T/C
Assay: NCI In Vivo Anticancer Drug Screen. Data for tumor model B16 Melanoma (intraperitoneal) in B6D2F1 (BDF1) mice
Conditions: T/C endpoint: median survival time, higher T/C = longer survival
In short: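 Survival or tumor size is measured after treatment of tumor-bearing mice and normalised to the vehicle-treated control group.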

[1] = dose: 1.5 mg/kg/injection, schedule: Q01DX009 (ip), vehicle: saline with Tween-80
[2] = dose: 3.0 mg/kg/injection, schedule: Q01DX009 (ip), vehicle: saline with Tween-80
[3] = dose: 6.0 mg/kg/injection, schedule: Q01DX009 (ip), vehicle: saline with Tween-80
[4] = dose: 12.0 mg/kg/injection, schedule: Q01DX009 (ip), vehicle: saline with Tween-80
[5] = dose: 3.12 mg/kg/injection, schedule: Q01DX009 (ip), vehicle: saline
[6] = dose: 6.25 mg/kg/injection, schedule: Q01DX009 (ip), vehicle: saline
[7] = dose: 12.0 mg/kg/injection, schedule: Q01DX009 (ip), vehicle: saline
[8] = dose: 12.5 mg/kg/injection, schedule: Q01DX009 (ip), vehicle: saline
[9] = dose: 100.0 mg/kg/injection, schedule: Q01DX009 (ip), vehicle: Klucel (hydroxypropylcellulose) (HPC)
[10] = dose: 200.0 mg/kg/injection, schedule: Q01DX009 (ip), vehicle: Klucel (hydroxypropylcellulose) (HPC)
[11] = dose: 200.0 mg/kg/injection, schedule: Q01DX009 (ip), vehicle: saline with Tween-80
[12] = dose: 200.0 mg/kg/injection, schedule: Q01DX009 (ip), vehicle: saline
[13] = dose: 400.0 mg/kg/injection, schedule: Q01DX009 (ip), vehicle: saline
[14] = dose: 400.0 mg/kg/injection, schedule: Q01DX009 (ip), vehicle: saline with Tween-80
[15] = dose: 400.0 mg/kg/injection, schedule: Q01DX009 (ip), vehicle: Klucel (hydroxypropylcellulose) (HPC)
[16] = dose: 50.0 mg/kg/injection, schedule: Q01DX009 (ip), vehicle: saline with Tween-80
[17] = dose: 100.0 mg/kg/injection, schedule: Q01DX009 (ip), vehicle: saline
[18] = dose: 25.0 mg/kg/injection, schedule: Q01DX009 (ip), vehicle: Klucel (hydroxypropylcellulose) (HPC)
[19] = dose: 50.0 mg/kg/injection, schedule: Q01DX009 (ip), vehicle: Klucel (hydroxypropylcellulose) (HPC)

CCCC[S][Sn]([CH2]CCC)([CH2]CCC)[S]CCCC
survivor count (dose: 0.75 mg/kg/injection, schedule: Q01DX009 (ip), vehicle: saline with Tween-80): 9 of 10
survivor count [1]: 4 of 10
survivor count [2]: 6 of 10
survivor count [3]: 1 of 10
survivor count [4]: 0 of 10

O=C1NC2(CCCCC2)C(=O)N1CCN(CCCl)CCCl
T/C [1]: 134 % of control
T/C (dose: 1.56 mg/kg/injection, schedule: Q01DX009 (ip), vehicle: saline): 128, 140, 148 % of control
T/C [2]: 129 % of control
T/C (dose: 3.0 mg/kg/injection, schedule: Q01DX009 (ip), vehicle: saline): 130 % of control [9 of 10 alive]
T/C [5]: 135 [9 of 10 alive] and 149 % of control
survivor count [5]: 10 of 10
T/C [3]: 136 % of control
survivor count [6]: 10 of 10
T/C [4]: 138 % of control
survivor count [4]: 10 of 10 (2×)
T/C [7]: 125 % of control
survivor count [7]: 9 of 10
survivor count [8]: 8 of 10
survivor count (dose: 24.0 mg/kg/injection, schedule: Q01DX009 (ip), vehicle: saline with Tween-80): 8 of 10 and 10 of 10
survivor count (dose: 48.0 mg/kg/injection, schedule: Q01DX009 (ip), vehicle: saline with Tween-80): 5 of 10

CCCCCCCCCCCCCCCCNS(=O)(=O)c1ccc(NN)cc1
survivor count [9]: 9 of 10
survivor count [10]: 10 of 10

COc1cccc(Cc2ccncc2)c1OC
survivor count (dose: 200.0 mg/kg/injection, schedule: Q01DX009 (ip), vehicle: water): 10 of 10
survivor count (dose: 400.0 mg/kg/injection, schedule: Q01DX009 (ip), vehicle: water): 0 of 10

CCC(C)C(N)C(=O)NC(CC(N)=O)C(=O)NC(CC(C)C)C(=O)NC(CCCCN)C(=O)NC(C)C(=O)NC(CC(C)C)C(=O)NC(C)C(=O)NC(C)C(=O)NC(CC(C)C)C(=O)NC(C)C(=O)NC(CCCCN)C(=O)NC(CCCCN)C(=O)NC(C(=O)NC(CC(C)C)C(N)=O)C(C)CC (centres undefined)
survivor count (dose: 8.0 mg/kg/injection, schedule: Q01DX009 (ip), vehicle: Klucel (hydroxypropylcellulose) (HPC)): 10 of 10
survivor count (dose: 16.0 mg/kg/injection, schedule: Q01DX009 (ip), vehicle: Klucel (hydroxypropylcellulose) (HPC)): 10 of 10

CCCCCCCCCCCCCCCCCCOCCCCCCCCCCCCCCCCCC
survivor count [11]: 10 of 10

Cc1ccn2ncnc2c1
survivor count [12]: 8 of 10
survivor count [13]: 5 of 10

O=c1[nH]c2ccc(Br)cc2c(=O)o1
survivor count [14]: 3 of 6

Cc1ccc2nc(-c3cc(Br)ccc3O)c(-c3cc(Br)ccc3O)nc2c1
survivor count [15]: 10 of 10

CC(=O)Oc1ccc[nH]c1=O
survivor count (dose: 600.0 mg/kg/injection, schedule: Q01DX009 (ip), vehicle: saline with Tween-80): 8 of 10
survivor count (dose: 800.0 mg/kg/injection, schedule: Q01DX009 (ip), vehicle: saline with Tween-80): 8 of 10
survivor count (dose: 1000.0 mg/kg/injection, schedule: Q01DX009 (ip), vehicle: saline with Tween-80): 3 of 10
survivor count (dose: 1200.0 mg/kg/injection, schedule: Q01DX009 (ip), vehicle: saline with Tween-80): 2 of 10

O=[N+]([O-])c1ccc(/C=N/c2ncc(Br)s2)o1
survivor count (dose: 25.0 mg/kg/injection, schedule: Q01DX009 (ip), vehicle: saline with Tween-80): 10 of 10
survivor count [16]: 10 of 10
survivor count (dose: 100.0 mg/kg/injection, schedule: Q01DX009 (ip), vehicle: saline with Tween-80): 5 of 10

CCCCNc1cc(Nc2ccc(Br)cc2)nc(N)n1
survivor count [11]: 9 of 10

O=S(=O)(O)O.[Ga]
survivor count [17]: 10 of 10

C1CC[N-]CC1.CC(=N\O)/C(C)=N/O.CC(=N\O)/C(C)=N/O.[CH2-]C.[Co+2]
survivor count [9]: 1 of 10

CCCC(NC(=O)C(Cc1ccccc1)NC(=O)OCc1ccccc1)C(=O)O (stereo not drawn) (Cbz-Phe-[Nva]-OH; configuration not given here)
survivor count [11]: 10 of 10
survivor count [14]: 9 of 10

Cc1ccc([N+](=O)[O-])cc1NC(=O)Oc1ccc(Cl)cc1
survivor count (dose: 200.0 mg/kg/injection, schedule: Q04DX003 (ip), vehicle: carboxymethylcellulose (CMC)): 10 of 10

Fc1cccc(/C=C2/c3cc(Cl)ccc3-c3c(Cl)cc(Cl)cc32)c1
survivor count [16]: 6 of 6

CC1=[N+](C)C(C)(C)CC(C)O1 (centres undefined)
T/C [5]: 133 % of control
T/C [6]: 138 % of control [8 of 10 alive]
T/C [8]: 140 % of control

CCN(CC)S(=O)(=O)c1ccc(OC)c(N)c1
survivor count (dose: 200.0 mg/kg/injection, schedule: Q04DX003 (ip), vehicle: saline with Tween-80): 10 of 10

c1ccc(N2CCOCC2)cc1
survivor count [15]: 0 of 10

O=C1OC(=O)C2C1C1C3C=CC3C1C21C=C1 (centres undefined)
survivor count [15]: 0 of 10

C=Cc1cc(OC)c2c(c1)c(=O)oc1c2cc(OC)c2c(O)ccc(C3OC(C(C)O)C(O)C3O)c21 (centres undefined)
T/C [18]: 135 % of control
T/C [19]: 127 % of control
T/C [10]: 136 % of control

O=c1oc(-c2ccccc2Cl)nc2cc(Cl)ccc12
survivor count [9]: 0 of 10

O=S(=O)(Nc1ccc(-c2ccccc2)cc1)c1ccccc1
survivor count [14]: 9 of 10

OCCN1CCN(CCCN2c3ccccc3Oc3ccc(C(F)(F)F)cc32)CC1
survivor count (dose: 25.0 mg/kg/injection, schedule: Q01DX009 (ip), vehicle: saline): 10 of 10
survivor count (dose: 50.0 mg/kg/injection, schedule: Q01DX009 (ip), vehicle: saline): 6 of 10
survivor count [17]: 0 of 10
survivor count [12]: 0 of 10
survivor count [13]: 0 of 10

O=c1cc[nH]c(=O)o1
survivor count (dose: 50.0 mg/kg/injection, schedule: Q01DX009 (ip), vehicle: water): 9 of 10
survivor count (dose: 100.0 mg/kg/injection, schedule: Q01DX009 (ip), vehicle: water): 0 of 10

c1ccc(CC2NCCc3c2[nH]c2ccccc32)cc1 (centres undefined)
survivor count (dose: 12.5 mg/kg/injection, schedule: Q01DX009 (ip), vehicle: Klucel (hydroxypropylcellulose) (HPC)): 7 of 10
survivor count [9]: 10 of 10
survivor count [10]: 5 of 10

Nc1cc2nc3ccccc3sc-2cc1=O
survivor count [14]: 6 of 10

COc1ccc2c(c1)CCC(c1ccccc1)=C2c1ccc(OCCN2CCCC2)cc1
survivor count (dose: 48.0 mg/kg/injection, schedule: Q01DX009 (ip), vehicle: saline sonified): 5 of 6

Cc1c(O)ccc(=O)n1O
survivor count (dose: 320.0 mg/kg/injection, schedule: Q01DX009 (ip), vehicle: saline with Tween-80): 8 of 10 and 10 of 10

CCC(C)C(C(=O)OCCN(C)C)c1ccccc1 (centres undefined)
survivor count [11]: 5 of 10

C1CCC2[N-]CC3CCCCC3[N-]CC3CCCCC3[N-]CC3CCCCC3[N-]CC2C1.[Cu+2].[O-][Cl+3]([O-])([O-])O (centres undefined)
survivor count [18]: 10 of 10
survivor count [19]: 3 of 10

CN(C)N=Nc1ccccc1
T/C (dose: 6.25 mg/kg/injection, schedule: Q01DX009 (ip), vehicle: Klucel (hydroxypropylcellulose) (HPC)): 131 % of control
T/C [18]: 130 % of control
T/C [19]: 136 % of control
survivor count [19]: 10 of 10
survivor count [9]: 0 of 10 and 9 of 10
survivor count [10]: 0 of 10

COc1ccc(CC(C(=O)O)C(Cc2ccc(OC)c(OC)c2)C(=O)O)cc1OC (centres undefined)
survivor count [15]: 9 of 10
